The values below come from patent US6379894 (NOVIMAUNE S A, dated 1999).

Protein sequences, listed by entry. Tags and fused reporters are not part of them.
UniProt P22415: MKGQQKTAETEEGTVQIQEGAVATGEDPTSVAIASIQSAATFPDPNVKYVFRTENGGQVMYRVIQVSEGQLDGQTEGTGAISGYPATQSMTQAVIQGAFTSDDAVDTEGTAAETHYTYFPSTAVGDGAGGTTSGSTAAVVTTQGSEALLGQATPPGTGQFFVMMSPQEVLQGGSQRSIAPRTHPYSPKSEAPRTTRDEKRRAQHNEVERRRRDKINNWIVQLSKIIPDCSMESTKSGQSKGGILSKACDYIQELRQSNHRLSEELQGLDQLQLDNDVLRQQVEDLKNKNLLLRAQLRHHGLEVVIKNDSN

Results are given in words; binding and its absence hold for the method and conditions named. Some results given as binding are weak or reduced against the parent protein; the word gives no strength.

The target in assay [1] is USF1 factor in nuclear extracts of Me67.8 cells (UniProt P22415). Put plainly: EMSA and supershift. The U complex from interferon gamma stimulated Me67.8 nuclear extract holds both STAT1 and USF1.
The target of assay [2] is T1, purified and recombinant USF1 protein (UniProt P22415 1-310, limits assumed).
T1 construct: also called USF1 recombinant factor; USF1 recombinant proteins
Description: EMSA with recombinant proteins on radiolabelled NGE DNA probe (GAS element and E-box). Background: A gel shift assay detects complexes by their altered migration in electrophoresis.

The target in assay [3] is USF1 factor in nuclear extracts of Me67.8 cells (UniProt P22415). Description: EMSA on NGE DNA probe, nuclear extract plus recombinant STAT1.

Regarding “STAT1 protein in nuclear extract of Me67.8 cells stimulated by interferon gamma (from UniProt P42224 2-750)”, in assay [1], the binding entry is recorded as “binds”.

B1: purified and activated recombinant STAT1 protein (other, UniProt P42224 1-750, looked up)
chain: MSQWYELQQLDSKFLEQVHQLYDDSFPMEIRQYLAQWLEKQDWEHAANDVSFATIRFHDLLSQLDDQYSRFSLENNFLLQHNIRKSKRNLQDNFQEDPIQMSMIIYSCLKEERKILENAQRFNQAQSGNIQSTVMLDKQKELDSKVRNVKDKVMCIEHEIKSLEDLQDEYDFKCKTLQNREHETNGVAKSDQKQEQLLLKKMYLMLDNKRKEVVHKIIELLNVTELTQNALINDELVEWKRRQQSACIGGPPNACLDQLQNWFTIVAESLQQVRQQLKKLEELEQKYTYEHDPITKNKQVLWDRTFSLFQQLIQSSFVVERQPCMPTHPQRPLVLKTGVQFTVKLRLLVKLQELNYNLKVKVLFDKDVNERNTVKGFRKFNILGTHTKVMNMEESTNGSLAAEFRHLQLKEQKNAGTRTNEGPLIVTEELHSLSFETQLCQPGLVIDLETTSLPVVVISNVSQLPSGWASILWYNMLVAEPRNLSFFLTPPCARWAQLSEVLSWQFSSVTKRGLNVDQLNMLGEKLLGPNASPDGLIPWTRFCKENINDKNFPFWLWIESILELIKKHLLPLWNDGCIMGFISKERERALLKDQQPGTFLLRFSESSREGAITFTWVERSQNGGEPDFHAVEPYTKKELSAVTFPDIIRNYKVMAAENIPENPLKYLYPNIDKDHAFGKYYSRPKEAPEPMELDGPKGTGYIKTELISVSEVHPSRLQTTDNLLPMSPEEFDEVSRIVGSVEFDSMMNTV
modifications: activated form (phosphorylated); the residue numbers are not given
notes: also called STAT1 factor
For B1, the binding entry in assay [2] and in assay [3] was “binds” throughout.
